The record followed here is PMC5132261.

The target of the assay is T1, GFP-ELKS2 (UniProt Q8K3M6).
T1 sequence: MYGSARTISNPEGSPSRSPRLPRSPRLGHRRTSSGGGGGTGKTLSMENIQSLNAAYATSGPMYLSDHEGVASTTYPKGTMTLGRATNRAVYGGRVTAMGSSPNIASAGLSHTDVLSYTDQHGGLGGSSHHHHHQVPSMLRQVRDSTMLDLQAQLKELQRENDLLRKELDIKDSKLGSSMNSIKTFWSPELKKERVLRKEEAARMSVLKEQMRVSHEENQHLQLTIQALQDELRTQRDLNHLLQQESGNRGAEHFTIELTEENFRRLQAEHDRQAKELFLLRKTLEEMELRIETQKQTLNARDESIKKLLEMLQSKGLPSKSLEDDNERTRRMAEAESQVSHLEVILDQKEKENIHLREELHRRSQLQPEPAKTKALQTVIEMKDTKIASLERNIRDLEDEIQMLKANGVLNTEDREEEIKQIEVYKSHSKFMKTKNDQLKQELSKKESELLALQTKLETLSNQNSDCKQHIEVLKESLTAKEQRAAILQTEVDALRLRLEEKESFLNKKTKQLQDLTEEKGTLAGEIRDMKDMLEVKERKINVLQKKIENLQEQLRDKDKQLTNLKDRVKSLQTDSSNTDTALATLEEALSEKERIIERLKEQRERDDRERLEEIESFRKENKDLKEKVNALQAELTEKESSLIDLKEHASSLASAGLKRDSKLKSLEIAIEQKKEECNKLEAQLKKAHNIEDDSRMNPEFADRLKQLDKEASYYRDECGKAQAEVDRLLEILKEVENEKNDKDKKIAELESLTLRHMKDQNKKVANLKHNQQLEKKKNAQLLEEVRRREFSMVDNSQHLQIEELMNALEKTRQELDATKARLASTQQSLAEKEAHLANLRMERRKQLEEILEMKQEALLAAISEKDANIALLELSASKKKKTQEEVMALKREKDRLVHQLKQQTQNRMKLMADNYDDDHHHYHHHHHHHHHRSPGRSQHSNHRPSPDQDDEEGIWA
In words: co-clustering assay (immunofluorescence of co-transfected COS7 cells); Myc-tagged Trio proteins scored for clustering with the puncta of GFP-Bassoon (or GFP-ELKS2); positive: more than 70% of cells, negative: fewer than 10% of cells.

Results are given in words; binding and its absence hold for the method and conditions named. Tags and fused reporters may be left off the sequences shown.

With Myc-Trio-FL (human), the binding entry is listed as “no binding”.
